Positions count from the first letter of the chain named. Only a part is listed here, and it is no random draw. Calls are pooled over several reports, among them a noisy single-well screen. The list shows a part of the results.
Columns and labels:
Details in all cases: stereoisomer not certain
[1] = system: T1, O10G3
T1 sequence (whole entry): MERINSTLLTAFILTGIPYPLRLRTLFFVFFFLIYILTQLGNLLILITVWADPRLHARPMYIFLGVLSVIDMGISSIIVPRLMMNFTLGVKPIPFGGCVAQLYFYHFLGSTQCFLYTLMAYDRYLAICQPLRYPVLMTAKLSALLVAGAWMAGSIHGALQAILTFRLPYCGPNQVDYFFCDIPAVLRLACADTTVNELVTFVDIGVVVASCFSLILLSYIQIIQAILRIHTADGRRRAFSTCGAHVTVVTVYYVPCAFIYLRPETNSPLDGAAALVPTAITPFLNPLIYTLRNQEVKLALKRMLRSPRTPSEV
Outline: (§1)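 Values were gathered from published papers (main text and supplementary material), with extra details requested from the original authors when needed, and checked for typos and inconsistencies. Each receptor–molecule pair is called responsive (active) if the original authors judged the measured signal statistically different from baseline, and non-responsive (inactive) otherwise. Assay methods varied by source, often transient mammalian cell-line luciferase assays. Recorded details include cell line, G-protein, co-transfected protein and tags.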

Chains of the proteins cited; added tags and fusions are not shown. A line that says so, or that is headed by a name, gives the form on record, which may keep a tag or linker.
O11H2, as listed by the source: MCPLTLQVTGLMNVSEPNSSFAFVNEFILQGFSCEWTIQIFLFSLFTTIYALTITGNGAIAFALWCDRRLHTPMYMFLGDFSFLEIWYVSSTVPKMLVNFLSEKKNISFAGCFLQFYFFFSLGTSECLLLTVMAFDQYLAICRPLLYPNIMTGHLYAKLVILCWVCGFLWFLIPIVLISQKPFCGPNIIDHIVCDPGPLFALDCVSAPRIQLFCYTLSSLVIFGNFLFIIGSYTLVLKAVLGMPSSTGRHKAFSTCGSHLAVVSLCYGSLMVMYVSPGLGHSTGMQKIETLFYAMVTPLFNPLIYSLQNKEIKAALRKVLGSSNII

[2] = system: T2, O10G4
T2 sequence (whole entry): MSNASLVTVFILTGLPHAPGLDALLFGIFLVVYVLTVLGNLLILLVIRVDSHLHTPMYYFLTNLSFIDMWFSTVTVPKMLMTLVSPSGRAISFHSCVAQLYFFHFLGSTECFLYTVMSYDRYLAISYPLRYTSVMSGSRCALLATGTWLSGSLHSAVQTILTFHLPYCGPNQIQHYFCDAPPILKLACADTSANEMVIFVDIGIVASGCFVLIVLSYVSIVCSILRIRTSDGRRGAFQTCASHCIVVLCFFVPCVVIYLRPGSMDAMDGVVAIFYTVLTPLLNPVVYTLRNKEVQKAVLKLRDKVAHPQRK
Outline: as §1

[3] = system: T3, O10G9
T3 sequence (whole entry): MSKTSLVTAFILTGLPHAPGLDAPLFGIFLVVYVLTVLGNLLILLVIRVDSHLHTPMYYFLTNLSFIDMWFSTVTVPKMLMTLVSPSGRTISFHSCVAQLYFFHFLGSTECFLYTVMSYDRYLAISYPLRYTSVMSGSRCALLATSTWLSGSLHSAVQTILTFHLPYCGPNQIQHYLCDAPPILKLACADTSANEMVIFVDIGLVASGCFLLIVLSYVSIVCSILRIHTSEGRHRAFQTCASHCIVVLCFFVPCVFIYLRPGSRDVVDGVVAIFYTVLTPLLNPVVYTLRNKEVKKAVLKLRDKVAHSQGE
Outline: as §1

[4] = system: T4, O10H2
T4 sequence (whole entry): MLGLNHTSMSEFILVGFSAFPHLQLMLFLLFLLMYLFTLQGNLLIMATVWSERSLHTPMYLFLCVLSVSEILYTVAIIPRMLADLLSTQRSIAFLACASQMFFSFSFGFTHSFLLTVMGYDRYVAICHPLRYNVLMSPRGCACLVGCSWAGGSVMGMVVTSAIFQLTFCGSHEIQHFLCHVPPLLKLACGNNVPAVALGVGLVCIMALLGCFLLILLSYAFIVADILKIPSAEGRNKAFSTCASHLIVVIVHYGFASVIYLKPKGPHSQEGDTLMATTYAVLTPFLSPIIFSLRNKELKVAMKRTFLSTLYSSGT
Outline: as §1

[5] = system: T5, O10H5
T5 sequence (whole entry): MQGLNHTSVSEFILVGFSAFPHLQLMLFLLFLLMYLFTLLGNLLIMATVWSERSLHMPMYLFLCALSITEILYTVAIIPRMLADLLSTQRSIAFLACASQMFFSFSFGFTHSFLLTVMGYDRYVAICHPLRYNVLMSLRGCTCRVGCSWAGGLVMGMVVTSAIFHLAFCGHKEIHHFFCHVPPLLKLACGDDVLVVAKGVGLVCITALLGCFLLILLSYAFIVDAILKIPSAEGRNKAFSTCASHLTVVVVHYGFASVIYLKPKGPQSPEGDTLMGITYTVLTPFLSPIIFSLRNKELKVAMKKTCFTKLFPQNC
Outline: as §1

[6] = system: T6, O10J1
T6 sequence (whole entry): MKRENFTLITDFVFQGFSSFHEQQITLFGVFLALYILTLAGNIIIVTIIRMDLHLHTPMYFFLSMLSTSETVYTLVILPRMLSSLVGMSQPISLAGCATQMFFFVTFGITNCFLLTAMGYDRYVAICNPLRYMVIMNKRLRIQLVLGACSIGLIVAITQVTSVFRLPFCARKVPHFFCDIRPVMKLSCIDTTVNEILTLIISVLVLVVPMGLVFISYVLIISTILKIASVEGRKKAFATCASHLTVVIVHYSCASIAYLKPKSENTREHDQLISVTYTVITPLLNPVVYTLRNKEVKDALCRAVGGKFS
Outline: as §1

[7] = system: T7, O10J3
T7 sequence (whole entry): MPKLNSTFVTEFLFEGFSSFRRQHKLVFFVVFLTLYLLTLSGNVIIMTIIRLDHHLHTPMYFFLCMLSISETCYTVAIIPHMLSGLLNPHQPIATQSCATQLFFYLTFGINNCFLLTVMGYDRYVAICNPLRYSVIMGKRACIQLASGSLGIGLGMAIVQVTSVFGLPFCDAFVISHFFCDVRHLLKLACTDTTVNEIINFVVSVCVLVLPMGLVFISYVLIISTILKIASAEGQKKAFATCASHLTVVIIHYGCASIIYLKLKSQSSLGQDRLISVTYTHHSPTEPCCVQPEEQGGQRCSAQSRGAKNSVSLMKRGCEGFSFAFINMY
Outline: as §1

[8] = system: T8, O10J5
T8 sequence (whole entry): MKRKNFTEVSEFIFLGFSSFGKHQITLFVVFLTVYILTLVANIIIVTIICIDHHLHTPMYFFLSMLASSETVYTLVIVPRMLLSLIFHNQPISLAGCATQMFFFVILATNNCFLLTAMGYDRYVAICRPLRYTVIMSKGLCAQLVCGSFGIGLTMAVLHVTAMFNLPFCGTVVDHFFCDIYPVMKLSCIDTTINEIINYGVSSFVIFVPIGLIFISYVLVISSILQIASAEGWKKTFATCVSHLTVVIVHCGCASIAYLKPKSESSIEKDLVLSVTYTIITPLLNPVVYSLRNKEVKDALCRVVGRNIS
Outline: as §1

[9] = system: T9, O10P1
T9 sequence (whole entry): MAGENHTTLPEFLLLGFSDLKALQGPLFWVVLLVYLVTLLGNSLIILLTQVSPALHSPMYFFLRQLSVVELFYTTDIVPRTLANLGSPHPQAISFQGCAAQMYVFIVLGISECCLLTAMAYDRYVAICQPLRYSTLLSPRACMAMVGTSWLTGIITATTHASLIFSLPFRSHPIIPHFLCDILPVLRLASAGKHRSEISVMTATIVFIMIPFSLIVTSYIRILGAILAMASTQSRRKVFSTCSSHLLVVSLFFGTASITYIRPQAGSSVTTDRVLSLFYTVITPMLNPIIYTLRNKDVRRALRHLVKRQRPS
Outline: as §1

[10] = system: T10, O10Q1
T10 sequence (whole entry): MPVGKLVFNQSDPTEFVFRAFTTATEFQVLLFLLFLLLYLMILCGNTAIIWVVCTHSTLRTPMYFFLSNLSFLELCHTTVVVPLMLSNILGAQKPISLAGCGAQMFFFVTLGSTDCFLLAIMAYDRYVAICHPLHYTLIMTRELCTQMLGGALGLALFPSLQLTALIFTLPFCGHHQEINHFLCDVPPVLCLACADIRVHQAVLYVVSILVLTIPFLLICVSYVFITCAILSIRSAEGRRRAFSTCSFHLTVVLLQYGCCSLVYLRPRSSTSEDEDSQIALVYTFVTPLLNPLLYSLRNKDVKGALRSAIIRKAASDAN
Outline: as §1

[11] = system: T11, O10R2
T11 sequence (whole entry): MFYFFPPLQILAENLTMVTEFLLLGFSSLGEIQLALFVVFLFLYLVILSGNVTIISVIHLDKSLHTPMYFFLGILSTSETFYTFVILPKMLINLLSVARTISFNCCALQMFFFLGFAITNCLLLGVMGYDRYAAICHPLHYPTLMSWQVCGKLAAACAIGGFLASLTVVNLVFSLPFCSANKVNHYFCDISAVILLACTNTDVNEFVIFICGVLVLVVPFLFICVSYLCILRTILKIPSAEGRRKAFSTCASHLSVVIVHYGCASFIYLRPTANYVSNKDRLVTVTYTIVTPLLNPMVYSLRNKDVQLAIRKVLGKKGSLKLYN
Outline: as §1

[12] = system: T12, O10R2; remark: listed apart in the source
T12 sequence (whole entry): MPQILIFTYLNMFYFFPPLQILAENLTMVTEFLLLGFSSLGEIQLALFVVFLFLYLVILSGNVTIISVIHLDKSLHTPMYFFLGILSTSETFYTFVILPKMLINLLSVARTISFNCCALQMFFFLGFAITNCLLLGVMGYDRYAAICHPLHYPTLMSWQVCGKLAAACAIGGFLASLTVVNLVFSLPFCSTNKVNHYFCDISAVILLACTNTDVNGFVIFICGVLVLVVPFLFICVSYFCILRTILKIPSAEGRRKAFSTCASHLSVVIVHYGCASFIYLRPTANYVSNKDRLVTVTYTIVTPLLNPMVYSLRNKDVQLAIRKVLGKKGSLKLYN
Outline: as §1

[13] = system: T13, O10V1
T13 sequence (whole entry): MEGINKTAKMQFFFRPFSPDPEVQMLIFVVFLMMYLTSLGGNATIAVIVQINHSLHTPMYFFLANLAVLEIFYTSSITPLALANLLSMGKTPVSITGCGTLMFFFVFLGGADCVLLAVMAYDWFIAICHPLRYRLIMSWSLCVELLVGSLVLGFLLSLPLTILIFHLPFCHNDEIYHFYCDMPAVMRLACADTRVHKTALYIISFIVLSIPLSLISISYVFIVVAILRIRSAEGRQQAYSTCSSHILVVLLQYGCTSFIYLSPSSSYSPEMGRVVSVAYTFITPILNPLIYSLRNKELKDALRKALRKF
Outline: as §1

[14] = system: T14, O10W1
T14 sequence (whole entry): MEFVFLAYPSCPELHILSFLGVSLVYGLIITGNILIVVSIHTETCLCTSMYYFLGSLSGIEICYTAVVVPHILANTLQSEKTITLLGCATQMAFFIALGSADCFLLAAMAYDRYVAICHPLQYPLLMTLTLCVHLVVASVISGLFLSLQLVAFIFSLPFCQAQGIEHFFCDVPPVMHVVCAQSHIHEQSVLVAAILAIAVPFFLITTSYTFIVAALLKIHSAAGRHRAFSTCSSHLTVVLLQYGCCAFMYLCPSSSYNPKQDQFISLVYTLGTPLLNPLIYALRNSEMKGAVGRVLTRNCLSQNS
Outline: as §1

[15] = system: T15, O10X1
T15 sequence (whole entry): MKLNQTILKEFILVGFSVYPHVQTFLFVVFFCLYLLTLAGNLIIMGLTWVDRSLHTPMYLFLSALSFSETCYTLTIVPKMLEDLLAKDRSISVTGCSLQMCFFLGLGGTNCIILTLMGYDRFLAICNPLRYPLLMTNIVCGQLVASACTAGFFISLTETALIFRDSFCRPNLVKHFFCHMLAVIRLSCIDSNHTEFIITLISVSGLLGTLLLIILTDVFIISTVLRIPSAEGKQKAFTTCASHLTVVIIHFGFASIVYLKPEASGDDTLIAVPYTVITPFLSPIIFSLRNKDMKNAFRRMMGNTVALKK
Outline: as §1

[16] = system: T16, O11G2
T16 sequence (whole entry): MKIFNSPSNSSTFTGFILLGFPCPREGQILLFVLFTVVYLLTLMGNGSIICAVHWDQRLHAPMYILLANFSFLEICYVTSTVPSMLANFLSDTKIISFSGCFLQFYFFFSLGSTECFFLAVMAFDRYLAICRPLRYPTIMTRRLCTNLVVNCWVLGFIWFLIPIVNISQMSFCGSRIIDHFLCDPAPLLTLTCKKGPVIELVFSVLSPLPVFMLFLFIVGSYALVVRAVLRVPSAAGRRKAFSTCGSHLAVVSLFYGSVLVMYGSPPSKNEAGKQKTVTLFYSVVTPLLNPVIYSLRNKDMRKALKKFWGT
Outline: as §1

[17] = system: T17, O11H1
T17 sequence (whole entry): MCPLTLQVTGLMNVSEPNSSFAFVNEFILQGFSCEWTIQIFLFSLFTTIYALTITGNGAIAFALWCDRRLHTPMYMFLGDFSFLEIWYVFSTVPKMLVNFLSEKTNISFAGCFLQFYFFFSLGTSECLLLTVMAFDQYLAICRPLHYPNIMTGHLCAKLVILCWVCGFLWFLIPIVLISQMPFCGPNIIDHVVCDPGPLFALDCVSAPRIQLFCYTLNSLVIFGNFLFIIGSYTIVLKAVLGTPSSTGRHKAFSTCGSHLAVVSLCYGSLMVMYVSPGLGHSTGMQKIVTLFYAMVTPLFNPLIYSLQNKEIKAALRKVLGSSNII
Outline: as §1

[18] = system: T18, O11H1; remark: listed apart in the source
T18 sequence (whole entry): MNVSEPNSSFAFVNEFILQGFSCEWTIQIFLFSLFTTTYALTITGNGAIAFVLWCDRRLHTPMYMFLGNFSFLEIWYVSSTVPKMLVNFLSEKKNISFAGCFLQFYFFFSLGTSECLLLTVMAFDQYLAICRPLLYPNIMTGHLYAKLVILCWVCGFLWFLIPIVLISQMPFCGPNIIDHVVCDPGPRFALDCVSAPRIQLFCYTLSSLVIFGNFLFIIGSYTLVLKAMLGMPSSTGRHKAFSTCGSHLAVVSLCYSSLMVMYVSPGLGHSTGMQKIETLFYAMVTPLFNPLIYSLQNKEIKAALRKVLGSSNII
Outline: as §1

[19] = system: T19, O11H2
T19 sequence (whole entry): T17 sequence (whole entry) with F90S, T105K, H146L, C156Y, M181K, V192I, N218S, I235L, T243M, V289E
Outline: as §1

[20] = system: T20, O11H4
T20 sequence (whole entry): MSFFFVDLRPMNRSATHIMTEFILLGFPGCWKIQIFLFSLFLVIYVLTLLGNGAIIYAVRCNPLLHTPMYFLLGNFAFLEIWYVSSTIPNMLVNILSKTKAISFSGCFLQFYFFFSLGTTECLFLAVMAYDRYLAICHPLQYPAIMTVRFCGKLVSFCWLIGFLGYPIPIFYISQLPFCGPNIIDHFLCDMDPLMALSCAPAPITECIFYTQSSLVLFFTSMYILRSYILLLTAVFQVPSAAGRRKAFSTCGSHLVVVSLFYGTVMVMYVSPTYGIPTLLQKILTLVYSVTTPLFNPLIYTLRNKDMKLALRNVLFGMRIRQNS
Outline: as §1

Measured: odorant receptor agonist call

CS
active: [16]
inactive: all other assays above

CCCCOC(C)=O
inactive: all assays above

From the M2OR odorant receptor database
